Measured values as given in patent US20060030586A1, “Method and health food for preventing and/or alleviating psychiatric disorder, and/or for effectuating sedation” (Education Center of Traditional Chinese Medicine Co., priority 2004, published 2006).
At least one structure is not confirmed: it was looked up by name or label, or the drawing left a doubt.

Key:
mice [1] = experiment: Locomotor activity (ultromotivity) measurement, evaluation of sedative action; assay type: in vivo; conditions: *p<0.05, **p<0.01 (Tukey)
Protocol: (§1) In the following Examples, all extracts and drugs used were dissolved in physiological saline before use for i.p. administration and the dose was 0.1 ml of physiological saline per 10 g of mouse body weight in either case. All extracts and drugs were suspended in physiological saline containing 1% carboxymethylcellulose before use for oral administration and the dose was 0.1 ml of 1% carboxymethylcellulose-containing physiological saline suspension per 10 g of mouse body weight in either case. Male ICR mice (Japan SLC) having a body weight of 25 to 30 g were used in the tests below unless otherwise stated, and were fed in advance at a room temperature of 23±1° C. and a relative humidity of 55±5% in the environment of a 12-hour-light and 12-hour-dark cycle at 7 and 19 for 3 to 5 days. The mice were allowed to have water and feed freely.
Twenty five mice were grouped into five groups each having five mice, to which 5 mg/kg of N-methylcoclaurine hydrochloride (treatment group 1-1: i.p. administration), 50 mg/kg of neferine hydrochloride (treatment group 1-2: oral administration, and treatment group 1-3: i.p. administration), 50 mg/kg of liensinine hydrochloride (treatment group 1-4: oral administration), or physiological saline (negativity control group 1-1: i.p. administration) was administered. The ultromotivity of the mice was analyzed by using a locomotor activity monitoring system (NS-AS01, Neuroscience Inc.). The ultromotivity measurements were performed at an interval of 5 minutes for 60 minutes, and the ultromotivity was judged from the count at each measuring time.
Similar tests were conducted by i.p. administration of 25 mg/kg of N-norarmepavine (treatment group 1-5, n=6), 25 mg/kg of O,O-dimethylcoclaurine (treatment group 1-6, n=5), 10 mg and 25 mg/kg of armepavine (respectively, treatment group 1-7, n=6, and treatment group 1-8, n=6), 10 mg and 25 mg/kg of O-methylarmepavine (respectively, treatment group 1-9, n=6, and treatment group 1-10, n=6), and physiological saline (negativity control group 1-2, n=5). The ultromotivity measurements were performed at an interval of five minutes for 60 minutes, and the ultromotivity was subjected to a significant difference test (Tukey's method) by using the counts at respective measuring times.
Tests were performed by using mice administered intraperitoneally with 25 mg/kg of neferine hydrochloride (treatment group 7-1, n=6), 25 mg/kg of liensinine hydrochloride (treatment group 7-2, n=6), and physiological saline (negativity control group, n=6) as well as 5 mg/kg of diazepam (positive control group, n=6) and a rotarod equipment (Ugo Basile, Italy) and a locomotor activity monitoring system (NS-ASO1, Neuroscience Inc.). The rotarod test was performed by placing a mouse on a rod having a diameter of 4 cm rotating at a speed of 8 rpm 15 minutes after drug administration and observing whether the mouse can stay on the rod without falling for three minutes. The individuals that had fallen from the rotating rod in the period of 3 minutes were judged that they are with motor coordination disorder. […] In addition, the ultromotivity measurements were performed at an interval of five minutes for 60 minutes, and the ultromotivity results were subjected to a significant difference test (Tukey's method) by using the counts at respective measuring times.

mice [2] = experiment: Forced swimming test (Porsolt); assay type: in vivo; conditions: 25 mg/kg i.p., 15 minutes after administration; **p<0.01 (Dunnett)
Protocol: as §1
Forced swimming tests were conducted according to the method of Porsolt et al. A mouse was placed in a cylindrical glass water tank of 10 cm in diameter and 25 cm in height (water temperature: 23° C.) filled with water to a depth of 10 cm and forced to swim therein. […] Each mouse was forced to swim 15 and 30 minutes after administration, and the immobile times during the 6-minute periods immediately after forced swimming were determined. […]

Structure (SMILES) | Ultromotivity (count) 30 minutes (mice [1]; 25 mg/kg i.p.) | Ultromotivity (count) 60 minutes (mice [1]; 25 mg/kg i.p.) | Ultromotivity (count) 30 minutes (mice [1]; 10 mg/kg i.p.) | Ultromotivity (count) 60 minutes (mice [1]; 10 mg/kg i.p.) | Immobile time (sec) after 15 minutes (mice [2])
COc1cc2c(cc1OC)C(Cc1ccc(O)cc1)NCC2 (stereo not drawn) [N-norarmepavine] | 792.0* ± 71.8 count | 1049** ± 85.5 count |  |  | 
COc1cc2c(cc1OC)C(Cc1ccc(O)cc1)N(C)CC2 (stereo not drawn) [armepavine] | 260.0** ± 56.15 count | 524.0* ± 149.3 count | 699.3** ± 126.6 count | 1107** ± 135.1 count | 174.5** ± 13.48 sec
COc1ccc(C[C@@H]2c3cc(OC)c(OC)cc3CCN2C)cc1 [O-methylarmepavine] | 214.3** ± 14.6 count | 321.3** ± 30.3 count | 708.0* ± 85.5 count | 1114** ± 158.6 count | 152.0** ± 14.35 sec
